In US20220168322A1, “NOVEL STAT3 INHIBITORS IDENTIFIED BY STRUCTURE-BASED VIRTUAL SCREENING INCORPORATING SH2 DOMAIN FLEXIBILITY” (Board of Regents, The University of Texas System, priority 2018, published 2022):
Some of these results come from one statement about several compounds together.

What was measured:
MDA-MB-468 cells = test: Anchorage-independent and dependent cell growth (MTT), MDA-MB-468; type: cell-based; conditions: cell-culture treated plates, 48 hrs, NA = No Activity, read-out: Growth AD IC50 468
Description: (§1) MDA-MB-468 cells were cultured for 48 hrs in complete DMEM with 10% FBS±compound (0/0.1/0.3/1/3/10/100 μM) in cell-culture-treated plates and viable cells quantitated using MTT. Relative % viability (viability after any treatment÷viability of untreated cells×100) was plotted as a function of Log [M] compound, and IC50 values calculated using GraphPad.
as §1, with “72” for “48”, “cell-culture-treated ultra-low attachment 96-well” for “cell-culture-treated”, “treatment viability” for “treatment÷viability”
(§2) Anchorage-independent and dependent cell growth. Cells were cultured in triplicates in complete DMEM±drug, in ultra-low attachment 96 well plates for 72 hrs or cell-culture treated plates for 48 hrs and viable cells were quantitated using MTT. Optical density (OD) was measured at 590 nm using a 96-well multi-scanner (Synergy H1 microplate reader, BioTek Inc, VT, USA). Relative % viability (viability after any treatment÷viability of untreated cells×100) was plotted along Y-axis. At least 2 replicates experiments were performed and were used for IC50 calculation using GraphPad software.

MDA-MB-231 cells = test: Anchorage-independent and dependent cell growth (MTT), MDA-MB-231; type: cell-based; conditions: cell-culture treated plates, 48 hrs, NA = No Activity, read-out: Growth AD IC50 231
Description: as §1, with “MDA-MB-231” for “MDA-MB-468”
as §1, with “MDA-MB-231” for “MDA-MB-468”, “72” for “48”, “cell-culture-treated ultra-low attachment 96-well” for “cell-culture-treated”
as §2

`COc1ccc(Br)cc1/C=C/C(=O)c1ccc(NC(C)=O)cc1` [SPEC-29, N-(4-[(E)-3-(5-bromo-2-methoxyphenyl)prop-2-enoyl)phenyl]acetamide] was tested, and the IC50 (MDA-MB-468 cells) was 2.4 to 12.2 µM and the IC50 (MDA-MB-231 cells) was 2.4 to 12.2 µM.
